This is one part of the list. Residues, ends and D or L forms follow the SMILES beside them. *: point of attachment. Cbz = O=C(OCc1ccccc1)*
Assays:
Experiment in all cases: log2 fold change, soluble protein after heating vs DMSO (PISA); higher = thermal stabilisation; K562 cells, 10 uM, 30 min; active = over 0.2 and 3.5 SD of the protein, either way, in both replicates (recomputed)
erlotinib = compound: C#Cc1cccc(Nc2ncnc3cc(OCCOC)c(OCCOC)cc23)c1 [erlotinib]
In short: (§1)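 Soluble protein was defined as the supernatant after 21,000xg for 90 min. It came from K562 cells at 2×10^6 cells/mL given 10 μM compound for 30 min, heated in aliquots for 3 min across 48°C-58°C, pooled, and extracted in PBS with 0.5% NP-40 at 4°C, and was quantified by TMTpro 16plex LC-MS/MS with equalised channel sums. Thermal stability against control samples, from duplicates, is reported as log2 fold change.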

The chains behind the UniProt entries cited, without tags or fusion partners. Where a name states a change or a piece, a line headed by the entry shows the natural chain unless it says otherwise.
UniProt Q6NVY1: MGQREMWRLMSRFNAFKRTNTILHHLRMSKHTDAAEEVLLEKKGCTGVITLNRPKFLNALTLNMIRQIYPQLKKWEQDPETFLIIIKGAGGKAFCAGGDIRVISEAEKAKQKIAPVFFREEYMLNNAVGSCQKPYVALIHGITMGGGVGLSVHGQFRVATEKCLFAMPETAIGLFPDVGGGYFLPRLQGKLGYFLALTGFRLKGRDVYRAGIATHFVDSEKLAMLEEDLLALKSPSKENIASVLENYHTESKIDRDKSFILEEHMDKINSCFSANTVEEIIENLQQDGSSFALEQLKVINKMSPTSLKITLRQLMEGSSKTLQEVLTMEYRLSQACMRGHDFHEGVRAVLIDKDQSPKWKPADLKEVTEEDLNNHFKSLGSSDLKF
UniProt Q14103: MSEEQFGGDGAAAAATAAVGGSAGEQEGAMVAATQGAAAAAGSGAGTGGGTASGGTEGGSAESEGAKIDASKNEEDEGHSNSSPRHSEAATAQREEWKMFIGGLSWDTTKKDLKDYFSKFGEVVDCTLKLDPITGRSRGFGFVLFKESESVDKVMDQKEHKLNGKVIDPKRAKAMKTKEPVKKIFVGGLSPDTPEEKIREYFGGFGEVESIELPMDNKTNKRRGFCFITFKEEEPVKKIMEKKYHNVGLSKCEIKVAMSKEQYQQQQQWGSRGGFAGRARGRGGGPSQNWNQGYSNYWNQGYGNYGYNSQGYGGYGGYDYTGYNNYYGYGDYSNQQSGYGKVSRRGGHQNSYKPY
UniProt P14735, whole entry, looked up: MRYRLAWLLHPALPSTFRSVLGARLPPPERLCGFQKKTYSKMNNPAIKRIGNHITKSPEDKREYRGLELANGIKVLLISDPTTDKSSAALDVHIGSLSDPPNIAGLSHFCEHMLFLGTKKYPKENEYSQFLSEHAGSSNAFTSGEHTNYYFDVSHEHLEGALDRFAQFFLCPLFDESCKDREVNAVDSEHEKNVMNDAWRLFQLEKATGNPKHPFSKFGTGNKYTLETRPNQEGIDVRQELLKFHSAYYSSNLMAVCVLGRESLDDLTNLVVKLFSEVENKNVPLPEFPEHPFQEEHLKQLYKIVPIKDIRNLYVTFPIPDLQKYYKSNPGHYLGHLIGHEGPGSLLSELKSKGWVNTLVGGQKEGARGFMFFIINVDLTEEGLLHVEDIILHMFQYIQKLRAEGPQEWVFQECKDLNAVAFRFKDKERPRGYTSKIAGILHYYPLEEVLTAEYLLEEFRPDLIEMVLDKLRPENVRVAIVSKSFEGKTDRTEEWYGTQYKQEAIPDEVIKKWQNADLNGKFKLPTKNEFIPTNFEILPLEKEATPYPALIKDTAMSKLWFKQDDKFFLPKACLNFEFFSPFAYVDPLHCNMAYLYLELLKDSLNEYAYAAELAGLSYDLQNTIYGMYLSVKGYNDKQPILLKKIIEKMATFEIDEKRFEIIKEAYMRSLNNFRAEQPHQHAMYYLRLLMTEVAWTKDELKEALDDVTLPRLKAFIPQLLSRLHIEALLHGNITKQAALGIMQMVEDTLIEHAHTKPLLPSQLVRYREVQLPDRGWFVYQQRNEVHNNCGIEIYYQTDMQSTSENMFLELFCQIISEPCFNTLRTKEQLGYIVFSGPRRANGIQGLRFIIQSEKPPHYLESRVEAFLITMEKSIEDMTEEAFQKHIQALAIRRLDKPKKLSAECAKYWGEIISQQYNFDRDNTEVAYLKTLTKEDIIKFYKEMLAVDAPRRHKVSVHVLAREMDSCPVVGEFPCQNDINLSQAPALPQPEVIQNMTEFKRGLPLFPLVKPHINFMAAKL
UniProt P09651: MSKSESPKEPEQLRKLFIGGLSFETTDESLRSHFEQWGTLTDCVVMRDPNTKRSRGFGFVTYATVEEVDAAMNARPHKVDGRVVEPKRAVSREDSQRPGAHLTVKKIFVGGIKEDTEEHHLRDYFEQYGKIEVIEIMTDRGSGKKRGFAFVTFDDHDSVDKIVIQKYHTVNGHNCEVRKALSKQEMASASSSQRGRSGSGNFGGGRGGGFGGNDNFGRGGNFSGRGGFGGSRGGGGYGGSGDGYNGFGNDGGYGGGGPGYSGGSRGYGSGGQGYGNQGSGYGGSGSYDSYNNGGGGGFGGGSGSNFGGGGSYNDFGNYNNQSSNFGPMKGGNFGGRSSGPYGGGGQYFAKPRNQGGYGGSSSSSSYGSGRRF
UniProt Q9NSE4: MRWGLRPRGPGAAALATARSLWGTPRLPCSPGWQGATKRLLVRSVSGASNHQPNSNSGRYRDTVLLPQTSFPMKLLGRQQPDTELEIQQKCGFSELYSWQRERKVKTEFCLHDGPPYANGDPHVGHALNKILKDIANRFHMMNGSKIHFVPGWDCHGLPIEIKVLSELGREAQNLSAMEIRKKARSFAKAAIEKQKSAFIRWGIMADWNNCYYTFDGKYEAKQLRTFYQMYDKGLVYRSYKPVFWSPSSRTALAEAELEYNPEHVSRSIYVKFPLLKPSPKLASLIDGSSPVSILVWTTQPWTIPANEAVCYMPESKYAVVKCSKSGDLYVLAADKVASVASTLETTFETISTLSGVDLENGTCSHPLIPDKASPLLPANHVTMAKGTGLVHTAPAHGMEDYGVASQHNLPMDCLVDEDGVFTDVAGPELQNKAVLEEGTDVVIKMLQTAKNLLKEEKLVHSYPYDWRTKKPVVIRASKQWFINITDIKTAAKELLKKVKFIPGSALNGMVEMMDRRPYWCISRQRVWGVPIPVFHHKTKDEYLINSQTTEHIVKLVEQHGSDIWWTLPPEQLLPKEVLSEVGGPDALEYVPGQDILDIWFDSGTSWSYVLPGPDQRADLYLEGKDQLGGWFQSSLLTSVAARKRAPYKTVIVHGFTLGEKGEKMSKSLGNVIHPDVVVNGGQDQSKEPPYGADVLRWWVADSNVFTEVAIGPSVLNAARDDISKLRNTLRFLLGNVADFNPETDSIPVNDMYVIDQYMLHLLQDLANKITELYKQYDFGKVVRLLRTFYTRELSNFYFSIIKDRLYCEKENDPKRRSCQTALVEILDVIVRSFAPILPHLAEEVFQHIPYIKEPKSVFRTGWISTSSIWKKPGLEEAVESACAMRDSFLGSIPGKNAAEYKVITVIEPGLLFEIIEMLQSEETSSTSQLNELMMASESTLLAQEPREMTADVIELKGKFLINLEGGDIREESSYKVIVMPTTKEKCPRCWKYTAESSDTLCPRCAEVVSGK
UniProt P61604, whole entry, looked up: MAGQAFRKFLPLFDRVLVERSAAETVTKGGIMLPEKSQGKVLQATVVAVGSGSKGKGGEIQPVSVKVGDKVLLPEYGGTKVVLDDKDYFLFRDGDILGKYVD
UniProt P10809, whole entry, looked up: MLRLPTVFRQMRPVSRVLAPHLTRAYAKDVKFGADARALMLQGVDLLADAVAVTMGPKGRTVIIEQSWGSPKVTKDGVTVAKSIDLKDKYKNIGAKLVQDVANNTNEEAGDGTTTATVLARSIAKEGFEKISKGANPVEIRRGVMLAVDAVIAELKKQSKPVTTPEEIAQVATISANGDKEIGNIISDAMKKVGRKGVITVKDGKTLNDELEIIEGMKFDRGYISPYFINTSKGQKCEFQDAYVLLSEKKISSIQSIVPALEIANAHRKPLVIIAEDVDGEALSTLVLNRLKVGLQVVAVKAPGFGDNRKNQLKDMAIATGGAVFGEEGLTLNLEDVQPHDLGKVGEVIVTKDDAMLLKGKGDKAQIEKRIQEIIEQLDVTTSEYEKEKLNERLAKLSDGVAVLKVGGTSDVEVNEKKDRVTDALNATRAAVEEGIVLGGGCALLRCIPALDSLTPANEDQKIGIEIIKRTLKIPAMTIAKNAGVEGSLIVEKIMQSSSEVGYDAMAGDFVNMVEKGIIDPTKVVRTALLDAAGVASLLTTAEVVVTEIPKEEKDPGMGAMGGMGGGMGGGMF
UniProt P31937: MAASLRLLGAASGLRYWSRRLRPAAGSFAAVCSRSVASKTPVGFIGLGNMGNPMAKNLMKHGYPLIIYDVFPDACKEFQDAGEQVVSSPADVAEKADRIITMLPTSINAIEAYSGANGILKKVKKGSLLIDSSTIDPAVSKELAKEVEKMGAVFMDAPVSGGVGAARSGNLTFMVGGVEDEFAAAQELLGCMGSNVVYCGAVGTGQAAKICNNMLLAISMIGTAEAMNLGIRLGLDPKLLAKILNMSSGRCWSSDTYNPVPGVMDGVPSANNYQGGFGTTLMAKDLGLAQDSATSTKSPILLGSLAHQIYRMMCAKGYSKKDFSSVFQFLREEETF
UniProt Q9NZL4: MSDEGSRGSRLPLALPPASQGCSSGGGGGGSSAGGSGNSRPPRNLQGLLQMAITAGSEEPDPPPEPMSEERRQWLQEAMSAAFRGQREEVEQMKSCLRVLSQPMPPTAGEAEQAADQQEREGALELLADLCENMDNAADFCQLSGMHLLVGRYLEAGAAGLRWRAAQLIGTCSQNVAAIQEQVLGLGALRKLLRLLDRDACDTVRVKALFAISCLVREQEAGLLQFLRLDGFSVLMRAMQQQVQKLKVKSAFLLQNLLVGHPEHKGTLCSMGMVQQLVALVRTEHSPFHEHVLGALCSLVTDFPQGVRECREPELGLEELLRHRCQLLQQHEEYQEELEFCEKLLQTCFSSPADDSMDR
UniProt Q00839, whole entry, looked up: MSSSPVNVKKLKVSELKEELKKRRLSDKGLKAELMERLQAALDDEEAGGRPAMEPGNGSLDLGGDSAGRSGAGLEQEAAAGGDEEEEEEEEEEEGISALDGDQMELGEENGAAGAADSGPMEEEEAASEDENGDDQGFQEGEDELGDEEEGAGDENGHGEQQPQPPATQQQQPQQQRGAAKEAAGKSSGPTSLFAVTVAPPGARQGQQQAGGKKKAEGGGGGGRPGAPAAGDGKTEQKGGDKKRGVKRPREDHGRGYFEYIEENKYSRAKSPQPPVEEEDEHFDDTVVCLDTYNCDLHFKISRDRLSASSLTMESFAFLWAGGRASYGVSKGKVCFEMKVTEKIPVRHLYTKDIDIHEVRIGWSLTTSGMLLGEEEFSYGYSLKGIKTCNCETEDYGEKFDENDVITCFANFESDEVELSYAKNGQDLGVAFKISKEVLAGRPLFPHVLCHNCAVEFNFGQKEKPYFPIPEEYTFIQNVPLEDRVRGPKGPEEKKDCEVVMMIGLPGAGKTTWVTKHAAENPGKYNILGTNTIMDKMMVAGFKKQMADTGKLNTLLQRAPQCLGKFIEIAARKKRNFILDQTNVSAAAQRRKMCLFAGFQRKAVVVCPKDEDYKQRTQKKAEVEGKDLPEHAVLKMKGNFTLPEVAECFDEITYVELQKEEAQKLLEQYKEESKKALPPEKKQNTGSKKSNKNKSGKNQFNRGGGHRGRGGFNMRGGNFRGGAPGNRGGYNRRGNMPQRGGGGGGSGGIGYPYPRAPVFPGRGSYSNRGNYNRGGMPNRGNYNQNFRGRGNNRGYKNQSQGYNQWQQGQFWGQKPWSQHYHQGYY
UniProt P38646: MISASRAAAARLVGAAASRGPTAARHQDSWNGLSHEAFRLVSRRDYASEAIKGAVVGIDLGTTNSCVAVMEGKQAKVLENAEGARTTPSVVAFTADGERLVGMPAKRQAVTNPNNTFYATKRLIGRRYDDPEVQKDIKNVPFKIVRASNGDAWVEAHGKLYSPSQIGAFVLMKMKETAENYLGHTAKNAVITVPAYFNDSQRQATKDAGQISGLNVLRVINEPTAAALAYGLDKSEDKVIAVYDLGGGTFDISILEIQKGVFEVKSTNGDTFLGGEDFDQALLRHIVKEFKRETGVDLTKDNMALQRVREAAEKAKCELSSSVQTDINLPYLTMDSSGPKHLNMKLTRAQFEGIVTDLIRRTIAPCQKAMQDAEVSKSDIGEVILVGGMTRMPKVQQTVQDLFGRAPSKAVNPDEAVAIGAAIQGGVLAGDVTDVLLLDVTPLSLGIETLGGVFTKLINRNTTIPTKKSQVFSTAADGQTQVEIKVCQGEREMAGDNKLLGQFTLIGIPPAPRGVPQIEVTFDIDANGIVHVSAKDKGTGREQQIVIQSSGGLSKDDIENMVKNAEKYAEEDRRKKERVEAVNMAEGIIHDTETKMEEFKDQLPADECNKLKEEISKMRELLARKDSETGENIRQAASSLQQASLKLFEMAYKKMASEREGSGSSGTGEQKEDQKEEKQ
UniProt Q3SXM5: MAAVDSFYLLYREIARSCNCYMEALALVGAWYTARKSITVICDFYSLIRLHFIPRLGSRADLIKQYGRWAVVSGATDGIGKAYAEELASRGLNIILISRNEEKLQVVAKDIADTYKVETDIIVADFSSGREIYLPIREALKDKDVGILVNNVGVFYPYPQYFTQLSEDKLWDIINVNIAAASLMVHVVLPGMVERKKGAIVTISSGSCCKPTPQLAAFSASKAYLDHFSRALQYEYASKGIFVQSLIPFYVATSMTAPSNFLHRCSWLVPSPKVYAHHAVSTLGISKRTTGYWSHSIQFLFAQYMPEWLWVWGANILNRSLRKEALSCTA

[1] = compound: C/C(=N\NC(=O)C1=CC(=CC=C1)S(=O)(=O)N2CCOCC2)/C3=C(C=CC(=C3)Cl)O
In short: as §1

[2] = compound: C1=CC(=C(C=C1Cl)C2=NC3=NC=CN=C3C(=N2)NC4=CC=NC=C4)F
In short: as §1

[3] = compound: C1=CC(=CC=C1C2=NC3=C(N2)C=C(C=C3)C(=O)N)OC4=CC=C(C=C4)Cl
In short: as §1

[4] = compound: C1=CC2=C(C=CC(=C2)/C=C\3/C(=O)NC(=NCC4=CC=CS4)S3)N=C1
In short: as §1

[5] = compound: C1=CC2=NC=CN=C2C=C1/C=C/3\C(=O)NC(=O)S3
In short: as §1

[6] = compound: C1=CC=C(C=C1)C2=NC(=C(N2)C3=CC=NC=C3)C4=CC(=C(C=C4)Cl)O
In short: as §1

[7] = compound: C1=CC=C2C(=C1)C3=NNC4=CC=CC(=C43)C2=O
In short: as §1

[8] = compound: C1CCN(C1)C(=O)NC2=CC=CC(=C2)NC3=NC=C(C(=N3)NCCC4=CN=CN4)Br
In short: as §1

[9] = compound: C1CN(CCC1(CC2=CC=C(C=C2)Cl)N)C3=NC=NC4=C3C=CN4
In short: as §1

IRAK-1-4 Inhibitor I = compound: C1COCCN1CCN2C3=CC=CC=C3N=C2NC(=O)C4=CC(=CC=C4)[N+](=O)[O-] [IRAK-1-4 Inhibitor I]
In short: as §1

ibrutinib = compound: C=CC(=O)N1CCC[C@@H](n2nc(-c3ccc(Oc4ccccc4)cc3)c3c(N)ncnc32)C1 [ibrutinib]
In short: as §1

[10] = compound: CC(=O)c1cnc2ccc(-c3cc(Cl)c(O)c(Cl)c3)nc2c1N[C@H]1CC[C@H](CN(C)C)CC1
In short: as §1

ralimetinib = compound: CC(C)(C)Cn1c(N)nc2ccc(-c3[nH]c(C(C)(C)C)nc3-c3ccc(F)cc3)nc21 [ralimetinib]
In short: as §1

[11] = compound: CC(C)(O)CC(=O)NCCn1ccc2ncnc(Nc3ccc(Oc4cccc(C(F)(F)F)c4)c(Cl)c3)c21
In short: as §1

[12] = compound: CC(C)C1=C2N=C(C=C(N2N=C1)NCC3=CC=CC=C3)NCCCCCCN
In short: as §1

[13] = compound: CC(C)C[C@@H](C=O)NC(=O)[C@H](CC(C)C)NC(=O)[C@H](CC(C)C)NC(=O)OCc1ccccc1
In short: as §1

pinometostat = compound: CC(C)N(C[C@H]1O[C@@H](n2cnc3c(N)ncnc32)[C@H](O)[C@@H]1O)[C@H]1C[C@@H](CCc2nc3cc(C(C)(C)C)ccc3[nH]2)C1 [pinometostat]
In short: as §1

[14] = compound: CC1=C(C(CC(=O)N1)C2=CC=C(C=C2)C(F)(F)F)C(=O)NC3=C(C=C4C(=C3)C=NN4)F
In short: as §1

[15] = compound: CC1=C(C2=C(C=C1)C(=O)C3=CC=CC=C3N2CCCN)C
In short: as §1

Measured: log2 fold change

HSPA4L (UniProt O95757)
inactive: erlotinib -0.035 | [1] 0.031 | [2] 0.049 | [3] -0.023 | [4] -0.02 | [5] 0.036 | [6] 0.007 | [7] 0.028 | [8] -0.004 | [9] 0.011 | IRAK-1-4 Inhibitor I 0.05 | ibrutinib -0.01 | [10] 0.02 | ralimetinib -0.009 | [11] -0.037 | [12] 0.014 | [13] 0.003 | pinometostat -0.003 | [14] -0.012 | [15] 0.015

HIBCH (UniProt Q6NVY1)
inactive: erlotinib 0.003 | [1] 0.101 | [2] 0.072 | [3] -0.021 | [4] 0.054 | [5] 0.014 | [6] 0.06 | [7] 0.015 | [8] 0.015 | [9] 0.002 | IRAK-1-4 Inhibitor I 0.022 | ibrutinib -0.002 | [10] -0.016 | ralimetinib -0.01 | [11] -0.099 | [12] -0.128 | [13] -0.008 | pinometostat -0.029 | [14] -0.01 | [15] 0.035

HNRNPD (UniProt Q14103)
inactive: erlotinib -0.102 | [1] -0.029 | [2] -0.251 | [3] -0.035 | [4] -0.097 | [5] 0.003 | [6] -0.05 | [7] 0.069 | [8] 0.075 | [9] -0.086 | IRAK-1-4 Inhibitor I -0.083 | ibrutinib 0.03 | [10] 0.169 | ralimetinib 0.085 | [11] 0.152 | [12] 0.013 | [13] 0.082 | pinometostat 0.054 | [14] 0 | [15] -0.029

IDE (UniProt P14735)
inactive: erlotinib -0.021 | [1] 0.055 | [2] 0.021 | [3] 0.023 | [4] 0.046 | [5] 0.003 | [6] 0.036 | [7] -0.004 | [8] -0.027 | [9] 0.04 | IRAK-1-4 Inhibitor I -0.015 | ibrutinib -0.008 | [10] -0.034 | ralimetinib 0.05 | [11] -0.042 | [12] 0.116 | [13] 0.058 | pinometostat 0.021 | [14] 0.013 | [15] 0.084

HNRNPA1 (UniProt P09651)
inactive: erlotinib -0.161 | [1] -0.184 | [2] -0.435 | [3] 0.038 | [4] -0.063 | [5] 0.033 | [6] -0.097 | [7] 0.003 | [8] -0.011 | [9] -0.138 | IRAK-1-4 Inhibitor I -0.141 | ibrutinib 0.096 | [10] 0.148 | ralimetinib 0.158 | [11] 0.139 | [12] 0.109 | [13] 0.117 | pinometostat 0.252 | [14] -0.02 | [15] -0.073

IARS2 (UniProt Q9NSE4)
inactive: erlotinib 0.001 | [1] 0.023 | [2] 0.021 | [3] 0.019 | [4] -0.024 | [5] 0.02 | [6] -0.003 | [7] -0.014 | [8] 0.015 | [9] 0.046 | IRAK-1-4 Inhibitor I 0.006 | ibrutinib 0.014 | [10] 0.018 | ralimetinib -0.031 | [11] 0.005 | [12] 0.028 | [13] -0.015 | pinometostat -0.073 | [14] 0 | [15] -0.003

HSPE1 (UniProt P61604)
inactive: erlotinib 0.02 | [1] 0.028 | [2] 0.088 | [3] -0.039 | [4] 0.049 | [5] 0.012 | [6] -0.034 | [7] 0 | [8] 0.017 | [9] 0.012 | IRAK-1-4 Inhibitor I 0.035 | ibrutinib -0.019 | [10] -0.01 | ralimetinib -0.05 | [11] 0.033 | [12] 0.077 | [13] 0.014 | pinometostat -0.054 | [14] 0.024 | [15] 0.076

HSPD1 (UniProt P10809)
inactive: erlotinib 0.007 | [1] -0.028 | [2] -0.043 | [3] -0.01 | [4] -0.009 | [5] -0.002 | [6] -0.006 | [7] 0.032 | [8] 0.017 | [9] 0.044 | IRAK-1-4 Inhibitor I 0.052 | ibrutinib -0.006 | [10] 0.017 | ralimetinib -0.038 | [11] 0.041 | [12] 0.021 | [13] -0.011 | pinometostat -0.032 | [14] 0.005 | [15] -0.011

HSPA4 (UniProt P34932)
inactive: erlotinib -0.048 | [1] 0.03 | [2] 0.091 | [3] 0 | [4] -0.027 | [5] 0.013 | [6] 0.03 | [7] 0.022 | [8] -0.001 | [9] 0.02 | IRAK-1-4 Inhibitor I 0.009 | ibrutinib -0.016 | [10] 0.009 | ralimetinib -0.011 | [11] -0.005 | [12] -0.005 | [13] -0.009 | pinometostat -0.052 | [14] -0.01 | [15] 0

HIBADH (UniProt P31937)
inactive: erlotinib -0.038 | [1] 0.05 | [2] -0.034 | [3] 0.016 | [4] 0.006 | [5] 0.013 | [6] 0.03 | [7] -0.011 | [8] -0.023 | [9] 0.042 | IRAK-1-4 Inhibitor I 0.012 | ibrutinib 0.011 | [10] -0.015 | ralimetinib 0 | [11] 0.058 | [12] 0.088 | [13] -0.024 | pinometostat 0.016 | [14] -0.018 | [15] -0.04

HSD17B8 (UniProt Q92506)
inactive: erlotinib 0 | [1] 0.023 | [2] 0.092 | [3] 0.011 | [4] -0.001 | [5] 0.009 | [6] -0.005 | [7] 0.058 | [8] 0.008 | [9] 0.018 | IRAK-1-4 Inhibitor I 0.006 | ibrutinib 0.026 | [10] -0.04 | ralimetinib -0.05 | [11] 0.025 | [12] 0.005 | [13] -0.005 | pinometostat -0.011 | [14] 0.013 | [15] 0.001

HSPBP1 isoform 3 (UniProt Q9NZL4)
inactive: erlotinib 0.01 | [1] 0.103 | [2] 0.019 | [3] -0.004 | [4] -0.01 | [5] 0.057 | [6] 0.06 | [7] -0.008 | [8] 0.027 | [9] -0.087 | IRAK-1-4 Inhibitor I -0.028 | ibrutinib -0.022 | [10] 0.068 | ralimetinib 0.026 | [11] -0.072 | [12] -0.181 | [13] -0.08 | pinometostat 0.02 | [14] 0.013 | [15] -0.07

HNRNPU (UniProt Q00839)
inactive: erlotinib -0.016 | [1] -0.005 | [2] -0.163 | [3] -0.013 | [4] -0.038 | [5] 0.021 | [6] -0.019 | [7] -0.071 | [8] 0.009 | [9] -0.238 | IRAK-1-4 Inhibitor I -0.213 | ibrutinib -0.034 | [10] -0.221 | ralimetinib 0.042 | [11] -0.06 | [12] -0.149 | [13] 0.05 | pinometostat 0.177 | [14] -0.019 | [15] -0.252

HSPA9 (UniProt P38646)
inactive: erlotinib -0.007 | [1] 0.003 | [2] 0.054 | [3] -0.032 | [4] -0.024 | [5] 0.005 | [6] -0.035 | [7] 0.023 | [8] 0.028 | [9] 0.036 | IRAK-1-4 Inhibitor I 0.065 | ibrutinib -0.001 | [10] 0.006 | ralimetinib -0.027 | [11] 0.004 | [12] -0.002 | [13] -0.008 | pinometostat -0.018 | [14] 0.039 | [15] -0.018

2 successive entries out of the list so far:
HIBADH (UniProt P31937)
inactive: erlotinib -0.038 | [1] 0.05 | [2] -0.034 | [3] 0.016 | [4] 0.006 | [5] 0.013 | [6] 0.03 | [7] -0.011 | [8] -0.023 | [9] 0.042 | IRAK-1-4 Inhibitor I 0.012 | ibrutinib 0.011 | [10] -0.015 | ralimetinib 0 | [11] 0.058 | [12] 0.088 | [13] -0.024 | pinometostat 0.016 | [14] -0.018 | [15] -0.04

HSD17B8 (UniProt Q92506)
inactive: erlotinib 0 | [1] 0.023 | [2] 0.092 | [3] 0.011 | [4] -0.001 | [5] 0.009 | [6] -0.005 | [7] 0.058 | [8] 0.008 | [9] 0.018 | IRAK-1-4 Inhibitor I 0.006 | ibrutinib 0.026 | [10] -0.04 | ralimetinib -0.05 | [11] 0.025 | [12] 0.005 | [13] -0.005 | pinometostat -0.011 | [14] 0.013 | [15] 0.001

Next records.

HSDL1 (UniProt Q3SXM5)
inactive: erlotinib -0.012 | [1] 0.064 | [2] 0.049 | [3] -0.034 | [4] 0.032 | [5] 0.027 | [6] -0.007 | [7] -0.027 | [8] -0.034 | [9] 0.034 | IRAK-1-4 Inhibitor I -0.004 | ibrutinib 0.025 | [10] -0.003 | ralimetinib -0.063 | [11] 0.035 | [12] 0.035 | [13] -0.041 | pinometostat -0.033 | [14] -0.031 | [15] 0.035
